According to publication PMC11039992:
Where a chain is given by its changes, count along the chain named. Results are given in words; binding and its absence hold for the method and conditions named. In cells and extracts the contact can be indirect. These calls come from enrichment with a bait or labelling near it, and not all partners need be listed. For part of these data: A no says only that the protein was not detected with the bait. Each block holds one binder with its values, some of them ahead of it.

Legend:
Test in all cases: proximity labelling; BioID: N-terminally MAC-tagged bait in Flp-In T-REx 293 cells, induced with 2 μg/ml tetracycline and 50 μM biotin for 24 h; three independent replicates; mass spectrometry
MAC-RBM41-WT (human) = molecular target: T1, MAC-RBM41-WT (human) (UniProt Q96IZ5)
T1 sequence: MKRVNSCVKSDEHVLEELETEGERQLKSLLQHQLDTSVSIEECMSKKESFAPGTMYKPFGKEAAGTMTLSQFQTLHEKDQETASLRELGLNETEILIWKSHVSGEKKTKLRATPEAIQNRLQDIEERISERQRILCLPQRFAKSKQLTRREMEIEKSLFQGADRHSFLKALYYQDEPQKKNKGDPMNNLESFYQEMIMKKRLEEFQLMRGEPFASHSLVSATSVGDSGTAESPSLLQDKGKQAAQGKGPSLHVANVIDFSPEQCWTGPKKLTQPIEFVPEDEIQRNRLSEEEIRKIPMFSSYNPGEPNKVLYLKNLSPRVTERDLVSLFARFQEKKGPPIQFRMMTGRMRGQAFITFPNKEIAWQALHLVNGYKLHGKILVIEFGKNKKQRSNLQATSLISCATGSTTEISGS

MAC-U11/U12-65K (human) = molecular target: T2, MAC-U11/U12-65K (human) (UniProt Q96LT9)
T2 sequence: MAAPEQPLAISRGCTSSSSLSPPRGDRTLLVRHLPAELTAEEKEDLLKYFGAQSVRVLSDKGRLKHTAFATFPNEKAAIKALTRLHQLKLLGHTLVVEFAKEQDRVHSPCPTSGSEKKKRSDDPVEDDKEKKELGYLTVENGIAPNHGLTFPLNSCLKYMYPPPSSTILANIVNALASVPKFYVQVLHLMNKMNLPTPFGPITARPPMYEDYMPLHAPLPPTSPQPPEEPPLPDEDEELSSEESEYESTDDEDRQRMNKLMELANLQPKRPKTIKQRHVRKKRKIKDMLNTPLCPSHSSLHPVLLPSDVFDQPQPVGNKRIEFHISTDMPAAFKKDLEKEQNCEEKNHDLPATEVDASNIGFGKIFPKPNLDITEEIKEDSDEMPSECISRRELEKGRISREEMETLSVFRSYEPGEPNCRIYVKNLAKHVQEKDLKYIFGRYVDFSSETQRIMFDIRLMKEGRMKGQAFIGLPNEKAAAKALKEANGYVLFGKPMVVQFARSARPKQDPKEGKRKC

MAC-RBM41-Q352A (human) = molecular target: T3, MAC-RBM41-Q352A (human) (UniProt Q96IZ5)
T3 sequence: T1 sequence with Q352A

[1] = molecular target: T4, MAC-RBM41-(1–258) (human) (UniProt Q96IZ5)
T4 sequence: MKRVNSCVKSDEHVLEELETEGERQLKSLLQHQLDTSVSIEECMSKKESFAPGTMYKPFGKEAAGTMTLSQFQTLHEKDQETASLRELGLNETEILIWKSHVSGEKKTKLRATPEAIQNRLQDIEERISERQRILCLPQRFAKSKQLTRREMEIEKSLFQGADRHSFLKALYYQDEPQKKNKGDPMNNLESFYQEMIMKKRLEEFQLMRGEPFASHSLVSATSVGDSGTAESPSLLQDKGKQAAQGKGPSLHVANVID

MAC-RBM41-F354A (human) = molecular target: T5, MAC-RBM41-F354A (human) (UniProt Q96IZ5)
T5 sequence: T1 sequence with F354A

[2] = molecular target: T6, MAC-RBM41-Y312A + F354A (human) (UniProt Q96IZ5)
T6 sequence: T1 sequence with Y312A, F354A

MAC-RBM41-Y312A (human) = molecular target: T7, MAC-RBM41-Y312A (human) (UniProt Q96IZ5)
T7 sequence: T1 sequence with Y312A

B3: U11-48K (SNRNP48) (protein, UniProt Q6IEG0 1-339)
chain: MEGEPPPVEERRRLQEELNEFVESGCRTLEEVTASLGWDLDSLDPGEEEAAEDEVVICPYDSNHHMPKSSLAKHMASCRLRKMGYTKEEEDEMYNPEFFYENVKIPSITLNKDSQFQIIKQARTAVGKDSDCYNQRIYSSLPVEVPLNHKRFVCDLTQADRLALYDFVVEETKKKRSDSQIIENDSDLFVDLAAKINQDNSRKSPKSYLEILAEVRDYKRRRQSYRAKNVHITKKSYTEVIRDVINVHMEELSNHWQEEQEKAEDDAEKNEERRSASVDSRQSGGSYLDAECSRHRRDRSRSPHKRKRNKDKDKNCESRRRKERDGERHHSHKRRKQKI
binding (MAC-RBM41-WT (human)): no binding
binding (MAC-U11/U12-65K (human)): binds

B4: U11-35K (SNRNP35) (protein, UniProt Q16560 1-246)
chain: MNDWMPIAKEYDPLKAGSIDGTDEDPHDRAVWRAMLARYVPNKGVIGDPLLTLFVARLNLQTKEDKLKEVFSRYGDIRRLRLVRDLVTGFSKGYAFIEYKEERAVIKAYRDADGLVIDQHEIFVDYELERTLKGWIPRRLGGGLGGKKESGQLRFGGRDRPFRKPINLPVVKNDLYREGKRERRERSRSRERHWDSRTRDRDHDRGREKRWQEREPTRVWPDNDWERERDFRDDRIKGREKKERGK
binding (MAC-RBM41-WT (human)): no binding
binding (MAC-U11/U12-65K (human)): binds

B5: U11-59K (PDCD7) (protein, UniProt Q8N8D1 1-485)
chain: MALPPFFGQGRPGPPPPQPPPPAPFGCPPPPLPSPAFPPPLPQRPGPFPGASAPFLQPPLALQPRASAEASRGGGGAGAFYPVPPPPLPPPPPQCRPFPGTDAGERPRPPPPGPGPPWSPRWPEAPPPPADVLGDAALQRLRDRQWLEAVFGTPRRAGCPVPQRTHAGPSLGEVRARLLRALRLVRRLRGLSQALREAEADGAAWVLLYSQTAPLRAELAERLQPLTQAAYVGEARRRLERVRRRRLRLRERAREREAEREAEAARAVEREQEIDRWRVKCVQEVEEKKREQELKAAADGVLSEVRKKQADTKRMVDILRALEKLRKLRKEAAARKGVCPPASADETFTHHLQRLRKLIKKRSELYEAEERALRVMLEGEQEEERKRELEKKQRKEKEKILLQKREIESKLFGDPDEFPLAHLLEPFRQYYLQAEHSLPALIQIRHDWDQYLVPSDHPKGNFVPQGWVLPPLPSNDIWATAVKLH
binding (MAC-RBM41-WT (human)): no binding
binding (MAC-U11/U12-65K (human)): binds

More lines, now with the values ahead:

binding (MAC-RBM41-WT (human)): no binding
binding (MAC-U11/U12-65K (human)): binds
B1: U11/U12-20K (ZMAT5) (protein, UniProt Q9UDW3 1-170)
chain: MGKRYFCDYCDRSFQDNLHNRKKHLNGLQHLKAKKVWYDMFRDAAAILLDEQNKRPCRKFLLTGQCDFGSNCRFSHMSERDLQELSIQVEEERRAREWLLDAPELPEGHLEDWLEKRAKRLSSAPSSRAEPIRTTVFQYPVGWPPVQELPPSLRAPPPGGWPLQPRVQWG

binding (MAC-RBM41-Q352A (human)): binds
binding [1]: binds
binding (MAC-RBM41-WT (human)): binds
binding (MAC-RBM41-F354A (human)): binds
binding [2]: binds
binding (MAC-RBM41-Y312A (human)): binds
binding (MAC-U11/U12-65K (human)): no binding
B2: DEAH-box RNA helicase DHX8 (enzyme, UniProt Q14562 1-1220)
chain: MAVAVAMAGALIGSEPGPAEELAKLEYLSLVSKVCTELDNHLGINDKDLAEFVISLAEKNTTFDTFKASLVKNGAEFTDSLISNLLRLIQTMRPPAKPSTSKDPVVKPKTEKEKLKELFPVLCQPDNPSVRTMLDEDDVKVAVDVLKELEALMPSAAGQEKQRDAEHRDRTKKKKRSRSRDRNRDRDRDRERNRDRDHKRRHRSRSRSRSRTRERNKVKSRYRSRSRSQSPPKDRKDRDKYGERNLDRWRDKHVDRPPPEEPTIGDIYNGKVTSIMQFGCFVQLEGLRKRWEGLVHISELRREGRVANVADVVSKGQRVKVKVLSFTGTKTSLSMKDVDQETGEDLNPNRRRNLVGETNEETSMRNPDRPTHLSLVSAPEVEDDSLERKRLTRISDPEKWEIKQMIAANVLSKEEFPDFDEETGILPKVDDEEDEDLEIELVEEEPPFLRGHTKQSMDMSPIKIVKNPDGSLSQAAMMQSALAKERRELKQAQREAEMDSIPMGLNKHWVDPLPDAEGRQIAANMRGIGMMPNDIPEWKKHAFGGNKASYGKKTQMSILEQRESLPIYKLKEQLVQAVHDNQILIVIGETGSGKTTQITQYLAEAGYTSRGKIGCTQPRRVAAMSVAKRVSEEFGCCLGQEVGYTIRFEDCTSPETVIKYMTDGMLLRECLIDPDLTQYAIIMLDEAHERTIHTDVLFGLLKKTVQKRQDMKLIVTSATLDAVKFSQYFYEAPIFTIPGRTYPVEILYTKEPETDYLDASLITVMQIHLTEPPGDILVFLTGQEEIDTACEILYERMKSLGPDVPELIILPVYSALPSEMQTRIFDPAPPGSRKVVIATNIAETSLTIDGIYYVVDPGFVKQKVYNSKTGIDQLVVTPISQAQAKQRAGRAGRTGPGKCYRLYTERAYRDEMLTTNVPEIQRTNLASTVLSLKAMGINDLLSFDFMDAPPMETLITAMEQLYTLGALDDEGLLTRLGRRMAEFPLEPMLCKMLIMSVHLGCSEEMLTIVSMLSVQNVFYRPKDKQALADQKKAKFHQTEGDHLTLLAVYNSWKNNKFSNPWCYENFIQARSLRRAQDIRKQMLGIMDRHKLDVVSCGKSTVRVQKAICSGFFRNAAKKDPQEGYRTLIDQQVVYIHPSSALFNRQPEWVVYHELVLTTKEYMREVTTIDPRWLVEFAPAFFKVSDPTKLSKQKKQQRLEPLYNRYEEPNAWRISRAFRRR
